Consider one molecule from article PMC6984811.

Sequences of proteins named here, by UniProt entry; tags and fusion partners are left off.
UniProt Q9WV60: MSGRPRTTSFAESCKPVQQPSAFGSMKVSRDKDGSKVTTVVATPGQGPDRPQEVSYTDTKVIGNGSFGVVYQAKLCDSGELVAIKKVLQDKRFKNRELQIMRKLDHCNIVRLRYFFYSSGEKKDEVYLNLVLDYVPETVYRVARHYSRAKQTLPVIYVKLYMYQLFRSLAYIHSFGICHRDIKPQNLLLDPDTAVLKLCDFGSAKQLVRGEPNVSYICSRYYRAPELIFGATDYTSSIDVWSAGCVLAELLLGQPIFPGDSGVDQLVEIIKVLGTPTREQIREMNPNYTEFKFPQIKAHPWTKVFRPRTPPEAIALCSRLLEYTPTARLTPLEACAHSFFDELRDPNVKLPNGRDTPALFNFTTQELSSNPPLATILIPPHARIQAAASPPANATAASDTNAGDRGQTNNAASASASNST

The target in this test is GSK3β, mouse (mouse (endogenous in cortex)) (UniProt Q9WV60). Briefly: co-IP; precleared cortical lysates of wild-type mice (P21-23) in RIPA buffer; immunoprecipitated with mouse anti-Gab1 or anti-GSK3β antibody on protein A-Sepharose beads, 2 hr in 50 mM Tris-HCl; western blot; rabbit IgG as negative control. (Immunoblotting shows a protein as a band on a membrane.)

These are yes or no findings as the source states them, for the method shown. Binding seen in cells or lysates may run through a third protein. Some results given as binding are weak or reduced against the parent protein; the word gives no strength.

B1: Gab1 (Grb2-associated binder 1), mouse (protein, UniProt Q9QYY0 1-695)
chain: MSGGEVVCSGWLRKSPPEKKLKRYAWKRRWFVLRSGRLTGDPDVLEYYKNDHAKKPIRIIDLNLCQQVDAGLTFNKKEFENSYIFDINTIDRIFYLVADSEEDMNKWVRCICDICGFNPTEEDPVKPLTGSSQAPVDSPFAISTAPASSQMEASSVALPPPYQVISLPPHPDTLGLQDDPQDYLLLINCQSKKPEPNRTLFDSAKPTFSETDCNDNVPSHQTPASSQSKHGMNGFFQQQMMYDCPPSRLTSVSGESSLYNLPRSYSHDVLPKESPSSTEADGELYTFNTPSGTAGVETQMRHVSISYDIPPTPGNTYQIPRTFPESTLGQSSKLDTIPDIPPPRPPKPHPTHDRSPVETCGVPRTASDTDSSYCIPPPAGMTPSRSNTISTVDLNKLRKDASSQDCYDIPRTFPSDRSSSLEGFHSQYKIKSVLTAGGVSGEELDENYVPMNPNSPPRQHSGSFTEPIQEPNYVPMTPGTFDFSSFGMQVPPPAHMGFRSSPKTPPRRPVPVADCEPPPVDRNLKPDRKVKPAPLDIKPLSEWEELQAPVRSPITRSFARDSSRFPMSPRPDSVHSTTSSSDSHDSEENYVPMNPNLSGEDPNLFASNSLDGGSSPMNKPKGDKQVEYLDLDLDSGKSTPPRKQKSSGSGSSMADERVDYVVVDQQKTLALKSTREAWTDGRQSTESETPTKNVK
For the molecule B1, the binding entry is recorded as “binds”.
